Assay results taken from patent US20220152228A1, “COMPOSITIONS AND METHODS FOR RADIOTHERAPY USING CHELATED RADIOTHERAPEUTIC AGENTS AND NON-TARGET TISSUE BLOCKADE” (Washington University, priority 2019, published 2022).

Assay: Radiolabeling of chelator with 223Ra monitored by radioTLC
Assay type: physicochemical
Conditions: room temperature, pH 6; for radiolabeling efficiency (RL): 223Ra

Compound | radiolabeling efficiency (RL) | macropa concentration at RL50% (after 5 min of reaction) | macropa concentration necessary to reach RL over 80% (after 5 min of reaction)
O=C(O)CN1CCN(CC(=O)O)CCN(CC(=O)O)CCN(CC(=O)O)CC1 [DOTA, 1,4,7,10-Tetraazacyclododecane-1,4,7,10-tetraacetic acid] | does not coordinate radium |  | 
O=C([O-])c1cccc(CN2CCOCCOCCN(Cc3cccc(C(=O)[O-])n3)CCOCCOCC2)n1.[223Ra+2] [[(^223Ra)macropa]] | exceeded 95% |  | 
O=C(O)c1cccc(CN2CCOCCOCCN(Cc3cccc(C(=O)O)n3)CCOCCOCC2)n1 [macropa] |  | 13 µM | 18 µM
